Measured values: patent publication US7338809B2, “Method for assaying whole blood” (Mitsubishi Kagaku Iatron, Inc., priority 2001, dated 2008)

How the values were obtained:
[1] = tested on: HBsAg; conditions: HBsAg 1 U/ml, EDTA whole blood stored at 4° C. for 3 days; for Recovery ratio: plasma = 100%
[2] = tested on: HBsAg; conditions: HBsAg 0.5 U/ml, heparin whole blood stored overnight at 4° C., plasma = 100%
[3] = tested on: HBsAg; conditions: detergent 2% upon mixing of whole blood; fresh blood immediately after collection; plasma = 100%
[4] = tested on: whole blood; test: Example 4: visual inspection of reaction system, types and concentrations of detergents (hemolysis, adhesion, aggregation); conditions: heparin whole blood stored overnight at 4° C.
[5] = detergent 2% upon mixing of whole blood
[6] = detergent 0.01% upon mixing of whole blood
[7] = detergent 0.1% upon mixing of whole blood
[8] = detergent 0.5% upon mixing of whole blood
[9] = detergent 1% upon mixing of whole blood
[10] = detergent 10% upon mixing of whole blood

`O=S(=O)([O-])CCC[n+]1ccccc1` was tested, and the Luminescence intensity [1, 5] was 10830, the Recovery ratio [1, 5] was 88% and the Recovery ratio [2, 6] was 28%. It also gave a Recovery ratio [2, 7] of 51%, a Recovery ratio [2, 8] of 48% and a Recovery ratio [2, 9] of 86%. For the same compound, the Recovery ratio [2, 10] was 22% and the Recovery ratio [3] was 86%.

In the case of `C[C@H](CCC(=O)NCCC[N+](C)(C)CCCS(=O)(=O)[O-])[C@H]1CC[C@H]2[C@@H]3[C@H](O)C[C@@H]4C[C@H](O)CC[C@]4(C)[C@H]3C[C@H](O)[C@]12C` [CHAPS, 3-{(3-Cholamidopropyl)dimethylammonio}-1-propanesulfonate], the Luminescence intensity [1, 9] is reported as 8020 and the Recovery ratio [1, 9] is reported as 66%.

In the case of `CCCCCCCCCCCCOS(=O)(=O)[O-].[Na+]` [SDS, Sodium dodecylsulfate], the Luminescence intensity [1, 9] is reported as 2450.

In the case of “Polyoxyethylene octyl phenyl ether [Triton X-100]”, the “Adhesion of magnetic particles to reaction vessel wall” value (shortened to “Adhesion of magnetic particles”) [4, 6] is reported as “Present”, the “Aggregation of magnetic particles” value [4, 6] is reported as “Present” and the “Adhesion of magnetic particles” value [4, 7] is reported as “Present”. For the same compound, the “Aggregation of magnetic particles” value [4, 7] was “Present”, the “Adhesion of magnetic particles” value [4, 8] was “Absent” and the “Aggregation of magnetic particles” value [4, 8] was “Present”. The “Adhesion of magnetic particles” value [4, 9] was “Absent”, the “Aggregation of magnetic particles” value [4, 9] was “Present” and the “Adhesion of magnetic particles” value [4, 10] was “Absent”. The “Aggregation of magnetic particles” value [4, 10] was “Present”, the Luminescence intensity [1, 9] was 5130 and the Recovery ratio [1, 9] was 42%.

Compound Polyoxyethylene stearyl ether [Brij 78] has a Luminescence intensity [1, 9] of 5820 and a Recovery ratio [1, 9] of 48%.

Like-named read-outs stand apart in the source and are kept apart here.
